Measured values reported in paper PMC8976005.

Protein sequences, listed by entry. Tags and fused reporters are not part of them.
UniProt Q9UI12: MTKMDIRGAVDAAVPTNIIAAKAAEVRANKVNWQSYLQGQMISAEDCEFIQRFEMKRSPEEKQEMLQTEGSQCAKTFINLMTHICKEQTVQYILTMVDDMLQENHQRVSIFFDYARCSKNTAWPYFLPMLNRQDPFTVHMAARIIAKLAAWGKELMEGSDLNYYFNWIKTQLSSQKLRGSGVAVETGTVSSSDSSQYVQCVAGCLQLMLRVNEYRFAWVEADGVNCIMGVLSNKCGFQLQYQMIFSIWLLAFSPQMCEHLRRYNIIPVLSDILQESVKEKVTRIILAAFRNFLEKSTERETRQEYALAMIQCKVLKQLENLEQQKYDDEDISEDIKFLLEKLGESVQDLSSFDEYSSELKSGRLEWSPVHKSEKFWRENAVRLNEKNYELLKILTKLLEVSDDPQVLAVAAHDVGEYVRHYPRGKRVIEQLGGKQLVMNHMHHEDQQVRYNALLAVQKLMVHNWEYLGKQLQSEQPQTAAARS

Target: T1, TurboID-STK11IP (human) (UniProt Q8N1F8)
T1 sequence: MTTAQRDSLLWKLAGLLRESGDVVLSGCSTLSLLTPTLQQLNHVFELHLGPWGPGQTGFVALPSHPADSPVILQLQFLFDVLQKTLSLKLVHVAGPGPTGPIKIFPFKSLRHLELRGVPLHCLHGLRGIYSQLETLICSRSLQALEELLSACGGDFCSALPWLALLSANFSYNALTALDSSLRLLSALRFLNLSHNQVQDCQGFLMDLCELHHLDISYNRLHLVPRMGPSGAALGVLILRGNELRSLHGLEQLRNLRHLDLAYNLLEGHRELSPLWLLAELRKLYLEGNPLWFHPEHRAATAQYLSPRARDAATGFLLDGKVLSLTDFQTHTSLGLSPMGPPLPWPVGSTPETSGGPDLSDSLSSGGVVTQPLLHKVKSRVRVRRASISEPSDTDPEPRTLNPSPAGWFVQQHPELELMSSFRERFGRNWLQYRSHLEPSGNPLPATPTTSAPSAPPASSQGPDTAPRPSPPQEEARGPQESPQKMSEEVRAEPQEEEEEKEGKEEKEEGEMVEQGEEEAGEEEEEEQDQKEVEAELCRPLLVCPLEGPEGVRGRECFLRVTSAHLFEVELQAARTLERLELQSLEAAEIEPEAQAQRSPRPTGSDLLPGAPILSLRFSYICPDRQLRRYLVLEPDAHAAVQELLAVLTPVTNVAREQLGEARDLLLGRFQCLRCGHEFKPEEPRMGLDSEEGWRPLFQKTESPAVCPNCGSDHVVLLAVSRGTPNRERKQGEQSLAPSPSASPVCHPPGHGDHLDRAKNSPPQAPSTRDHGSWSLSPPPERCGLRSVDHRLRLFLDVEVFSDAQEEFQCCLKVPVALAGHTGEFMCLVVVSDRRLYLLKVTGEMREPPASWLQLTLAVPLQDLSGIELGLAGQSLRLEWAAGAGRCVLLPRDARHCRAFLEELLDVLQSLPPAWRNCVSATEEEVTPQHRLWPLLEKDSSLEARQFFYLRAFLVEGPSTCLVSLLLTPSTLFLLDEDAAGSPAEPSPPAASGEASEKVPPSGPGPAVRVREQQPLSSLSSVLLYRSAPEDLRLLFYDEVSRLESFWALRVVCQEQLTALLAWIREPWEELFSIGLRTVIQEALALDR
Experiment: proximity labelling; HEK293T cells stably expressing TurboID-STK11IP; 50 μM biotin for 2 h in complete or amino acid depleted medium; 1% SDS lysis, streptavidin beads, on-beads digestion, MS

| Substance | binding |
| --- | --- |
| ATP6V1B (human (endogenous in HEK293T)) | binds |
| ATP6V1H (from UniProt Q9UI12 1-483) | binds |

Results are given in words; binding and its absence hold for the method and conditions named. Binding seen in cells or lysates may run through a third protein. Here binding means that the protein was enriched with, or labelled near, the bait; the list need not be complete.
